Measured values reported in paper PMC8965321.
For at least one entry, the source does not settle the construct or the ends of the probe. No signal at the amounts used counts as a negative.

Test system: GP46F13 (Lactococcus lactis phage vB_Llc_bIBBF13 (F13))
Experiment: EMSA
Conditions: no ATP, 20 mM Tris-HCl pH 8, 50 mM NaCl, 1 mM DTT, 1 mM EDTA, 0.1 mg/ml BSA, 2.5% glycerol, 30 min at 30 C, 1 nM DNA, 7% native PAGE, 0.5x TBE, 4 C, recombinant protein, protein details: N-terminal 6xHis-SUMO, removed by SUMO protease
[1] = complexes in wells, 0.1-0.75 uM protein, label: 5' Cy5, single-stranded DNA

## AAAAATTGAATACGCCTAAGGC [ss22]
[1]
  binding result: binds

## CTCAATTCCTAAGACATCAGACAAGCCTTAGGCGTATTCAATTTT / TTTTTTTTTTTTTTTTTTTTTTTTTTTTTTTTTTTTAAGGCTTGTCTGATGTCTTAGGAATTGAG [30duplex_5'ext]
Clear complexes, 0.1-0.75 uM protein, label: 5' Cy5 on strand 1
  binding result: binds

## CTCAATTCCTAAGACATCAGACAAGCCTTAGGCGTATTCAATTTT [ss45]
[1]
  binding result: binds

## TATTCAGTACGGTTTTCATATACTCAATTCCTAAGACATCAGACAAGCCTTAGGCGTATTCAATTTTT [ss68]
[1]
  binding result: binds

## TCACACAGGGCTACCGCTTTGCCTAACTCATTACTCGCGCCTTATTCAGTACGGTTTTCATATACTCAATTCCTAAGACATCAGACAAGCCTTAGGCGTATTCAATTTTT (double strand) [ds110 (110ds)]
Up to 0.75 uM protein, 0.1-0.75 uM …, label: 5' Cy5 on reverse strand, letters put together from the description
  binding result: no binding

## TCACACAGGGCTACCGCTTTGCCTAACTCATTACTCGCGCCTTATTCAGTACGGTTTTCATATACTCAATTCCTAAGACATCAGACAAGCCTTAGGCGTATTCAATTTTT [ss110]
Clear retarded complexes, 0.1-0.75 uM protein, label: 5' Cy5, single-stranded DNA
  binding result: binds
